Reference: PubChem BioAssay AID743121 (NCATS, 2013)
Shown is a random part of about 26,000 reagents tested. In the full data, 167 (0.63%) got an active call. 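Calls are per gene from RSA p-values that are not deposited; an individual active-marked siRNA can sensitise only weakly.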 Reagents against one gene are numbered here. Not all columns of the deposit are shown.

Test: 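Knock-downs that sensitise breast cancer cells to camptothecin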 (primary screen)
Cells: MDA-MB-231 cells, a human breast cancer line
Reagents: single siRNA against human genes, 20 nM siRNA (0.8 pmol per well)
Time to read-out: 120 h (drug added 48 h after transfection, read 72 h later)
Challenge: camptothecin 20 nM (about EC30) for 72 h; vehicle 0.1% DMSO in parallel plates
Read-out: 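CellTiter-Glo ATP signal, scaled to control siRNA as percent viability; sensitisation given as log2 of untreated divided by camptothecin-treated viability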
Scale: log2 vehicle/camptothecin viability: higher = stronger sensitisation to camptothecin
Rule for the call: 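Each gene scored by redundant siRNA activity (RSA) over its individual siRNA ratios; a gene is called active at p < 0.001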

What is on record for ETFA (electron transfer flavoprotein subunit alpha) #1?
log2 vehicle/camptothecin viability: 0.17; outcome: inactive

How did the screen score ETFA (electron transfer flavoprotein subunit alpha) #2?
log2 vehicle/camptothecin viability: 0.014; outcome: inactive

For ETFA (electron transfer flavoprotein subunit alpha) #3, what was measured?
log2 vehicle/camptothecin viability: 0.392; outcome: inactive

For FBXW8 (F-box and WD repeat domain containing 8) #1, what was measured?
log2 vehicle/camptothecin viability: -0.22; outcome: inactive

For FBXW8 (F-box and WD repeat domain containing 8) #2, what does the deposit list?
log2 vehicle/camptothecin viability: 0.17; outcome: inactive

For FBXW8 (F-box and WD repeat domain containing 8) #3, how do the results read?
log2 vehicle/camptothecin viability: -0.0839; outcome: inactive

With DUSP16 (dual specificity phosphatase 16) #1, how do the results read?
log2 vehicle/camptothecin viability: -0.209; outcome: inactive

What is on record for DUSP16 (dual specificity phosphatase 16) #2?
log2 vehicle/camptothecin viability: -0.208; outcome: inactive

What did the screen give for DUSP16 (dual specificity phosphatase 16) #3?
log2 vehicle/camptothecin viability: -0.692; outcome: inactive

With DUSP16 (dual specificity phosphatase 16) #4, what does the deposit list?
log2 vehicle/camptothecin viability: -0.000202; outcome: inactive

For ATP9A (ATPase phospholipid transporting 9A) #1, how do the results read?
log2 vehicle/camptothecin viability: -0.665; outcome: inactive

What is on record for ATP9A (ATPase phospholipid transporting 9A) #2?
log2 vehicle/camptothecin viability: -0.174; outcome: inactive

With ATP9A (ATPase phospholipid transporting 9A) #3, what was measured?
log2 vehicle/camptothecin viability: 1.18; outcome: inactive

For NKTR (natural killer cell triggering receptor) #1, how do the results read?
log2 vehicle/camptothecin viability: 0.336; outcome: inactive

Which result is listed for NKTR (natural killer cell triggering receptor) #2?
log2 vehicle/camptothecin viability: -0.0355; outcome: inactive

How did the screen score NKTR (natural killer cell triggering receptor) #3?
log2 vehicle/camptothecin viability: -0.228; outcome: inactive

Not a retest: an excerpt of the list.
DUSP16 (dual specificity phosphatase 16) #1 → log2 vehicle/camptothecin viability: -0.209; outcome: inactive
DUSP16 (dual specificity phosphatase 16) #2 → log2 vehicle/camptothecin viability: -0.208; outcome: inactive
DUSP16 (dual specificity phosphatase 16) #3 → log2 vehicle/camptothecin viability: -0.692; outcome: inactive
DUSP16 (dual specificity phosphatase 16) #4 → log2 vehicle/camptothecin viability: -0.000202; outcome: inactive

The listing continues:
For ANKH (ANKH inorganic pyrophosphate transport regulator) #1, what does the deposit list?
log2 vehicle/camptothecin viability: -0.459; outcome: inactive

What is on record for ANKH (ANKH inorganic pyrophosphate transport regulator) #2?
log2 vehicle/camptothecin viability: 0.368; outcome: inactive

For ANKH (ANKH inorganic pyrophosphate transport regulator) #3, what does the deposit list?
log2 vehicle/camptothecin viability: -0.353; outcome: inactive

For ANKH (ANKH inorganic pyrophosphate transport regulator) #4, what does the deposit list?
log2 vehicle/camptothecin viability: 0.13; outcome: inactive

For ING1 (inhibitor of growth family member 1) #1, what does the deposit list?
log2 vehicle/camptothecin viability: -0.139; outcome: inactive

With ING1 (inhibitor of growth family member 1) #2, how do the results read?
log2 vehicle/camptothecin viability: 0.0453; outcome: inactive

With ING1 (inhibitor of growth family member 1) #3, how do the results read?
log2 vehicle/camptothecin viability: 0.0573; outcome: inactive

How did the screen score MED26 (mediator complex subunit 26) #1?
log2 vehicle/camptothecin viability: 0.35; outcome: inactive

For MED26 (mediator complex subunit 26) #2, what was measured?
log2 vehicle/camptothecin viability: -0.502; outcome: inactive

With MED26 (mediator complex subunit 26) #3, what does the deposit list?
log2 vehicle/camptothecin viability: -0.183; outcome: inactive

For MED26 (mediator complex subunit 26) #4, what does the deposit list?
log2 vehicle/camptothecin viability: 0.974; outcome: inactive

For CA8 (carbonic anhydrase 8 (inactive)) #1, what was measured?
log2 vehicle/camptothecin viability: 0.0549; outcome: inactive

What did the screen give for CA8 (carbonic anhydrase 8 (inactive)) #2?
log2 vehicle/camptothecin viability: -0.149; outcome: inactive

For CA8 (carbonic anhydrase 8 (inactive)) #3, what does the deposit list?
log2 vehicle/camptothecin viability: -0.118; outcome: inactive

Which result is listed for CA8 (carbonic anhydrase 8 (inactive)) #4?
log2 vehicle/camptothecin viability: -0.451; outcome: inactive

Which result is listed for ANGPTL5 (angiopoietin like 5) #1?
log2 vehicle/camptothecin viability: -0.0843; outcome: inactive

For ANGPTL5 (angiopoietin like 5) #2, how do the results read?
log2 vehicle/camptothecin viability: -0.124; outcome: inactive

What did the screen give for ANGPTL5 (angiopoietin like 5) #3?
log2 vehicle/camptothecin viability: -0.27; outcome: inactive

With ISG15 (ISG15 ubiquitin like modifier) #1, what does the deposit list?
log2 vehicle/camptothecin viability: -0.0841; outcome: inactive

What did the screen give for ISG15 (ISG15 ubiquitin like modifier) #2?
log2 vehicle/camptothecin viability: 0.0878; outcome: inactive

For ISG15 (ISG15 ubiquitin like modifier) #3, what was measured?
log2 vehicle/camptothecin viability: -0.0133; outcome: inactive

With ISG15 (ISG15 ubiquitin like modifier) #4, what does the deposit list?
log2 vehicle/camptothecin viability: -0.409; outcome: inactive
